Source: PubChem BioAssay AID504444 (National Center for Advancing Translational Sciences (NCATS), 2011)
About 7,500 (2.1%) of roughly 360,000 compounds were called active. The inconclusive results got no clear call from the source; some entries with a clear call stand among them for comparison. Calls come from the whole dose curve; as a rule, active = well fitted inhibition curve with a large enough effect; inconclusive = small, poorly fitted or top-dose-only effect, or effect the other way; inactive = flat fitted curve, though single readings scatter. Potencies of inconclusive entries are doubtful fits and often do not repeat.
% is set by controls: 0 for no effect and ±100 for the full control effect; potency is the fitted concentration of half-maximal effect.

Assay: Nrf2 qHTS screen for inhibitors; note: nearly all actives have a fitted effect of over 60% in size
Details: A549 ARE-Fluc reporter, luciferase luminescence, 18-24 h; activity change, negative = inhibition: at 46 µM (top of the series)
Summary of the method: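 Concentration-response testing used A549 ARE_Fluc cells at 5000 cells/well. Following an 18-24 h compound incubation, viability was read by fluorescence (Ex 405/Em 525) and luciferase output by luminescence.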
In the case of `Cc1nnc(NCc2ccccc2)c2c1nnn2Cc1ccc(F)cc1`, the Potency is reported as inconclusive: 29.1 µM [falling, single point].
With `CCCC(=O)NC1=C(N2CC2)C(=O)C(NC(=O)CCC)=C(N2CC2)C1=O` the Potency was inconclusive: 0.517 µM [falling, full curve].
With `O=C1Nc2ccccc2/C1=C/c1cnc[nH]1` the Potency was active: 7.31 µM.
With `N#Cc1cc2c(nc1SCC(=O)Nc1ccc(Cl)c(C(F)(F)F)c1)C1CCN2CC1` the Potency was active: 7.31 µM.
With `O=C1NC(=O)C(C(CC(=O)c2ccccc2)c2ccccc2)C(=O)N1` (stereo unspecified) the “activity change, negative = inhibition” value was inactive: 1.79%.
In the case of `ClCCN(CCCl)c1ccc(-n2cnc3c(Cl)ncnc32)cc1`, the “activity change, negative = inhibition” value is reported as inactive: -17.3%.
In the case of `Cc1ccc(/C=C2/C(=O)NC(=O)N(CCc3ccc(F)cc3)C2=O)s1`, the Potency is reported as inconclusive: 7.31 µM [activator, partial curve].
In the case of `COC(=O)C1=C(c2ccc3ccccc3c2)C[C@@H]2CC[C@H]1N2C(=O)NCc1ccc(F)cc1`, the Potency is reported as inconclusive: 18.4 µM [falling, single point].
For `COc1cc(C(=O)N/N=C/C23CC[C@@H](O)CC2(O)CC[C@@H]2[C@@H]3CCC3(C)C(C4=CC(=O)OC4)CCC23O)ccc1O` (stereo partly specified), the Potency was inconclusive: 18.4 µM [activator, partial curve].
In the case of `C[C@H]1CCC[C@@H](O)CCC/C=C/c2cc(O)cc(O)c2C(=O)O1`, the Potency is reported as inconclusive: 29.1 µM [falling, single point].
In the case of `CN(C(=O)CSc1nc2ccc(NC(=O)COc3ccccc3)cc2s1)c1ccccc1`, the Potency is reported as inconclusive: 20.6 µM [falling, single point].
For `COc1ccc(C(=O)NC(=S)NNC(=O)c2cccnc2)cc1`, the Potency was inconclusive: 20.6 µM [falling, partial curve].
With `O=C(Nc1ccccc1)c1cccn(Cc2ccccc2)c1=O` the Potency was inconclusive: 23.1 µM [falling, single point].
In the case of `Cc1cc(N=Nc2ccccc2C)ccc1N`, the Potency is reported as inconclusive: 29.1 µM [activator, single point].
In the case of `C[C@@H]1CCC2[C@@H](C)C(=O)O[C@@H]3OC4(C)CCC1[C@@]23OO4` (stereo partly specified), the “activity change, negative = inhibition” value is reported as inactive: -1.26%.
For `O=c1c(C=NCc2cccs2)c(O)n(C2CCCCC2)c(=O)n1C1CCCCC1`, the Potency was inconclusive: 18.4 µM [falling, partial curve].
In the case of `COC(=O)C1=C(c2cc3ccccc3o2)C[C@@H]2CC[C@H]1N2C(=O)N1CCCCC1`, the Potency is reported as inconclusive: 23.1 µM [falling, partial curve].
For `CCCCn1c(=O)c(C(=O)NCc2ccccc2Cl)c(O)c2ccccc21`, the Potency was inconclusive: 25.9 µM [falling, single point].
For `Clc1ccccc1Nc1ncnc(-n2cccc2)n1`, the Potency was inconclusive: 2.31 µM [activator, full curve].
In the case of `CCc1ccc(CN2CCN(Cc3cc(Br)ccc3O)CC2)cc1`, the Potency is reported as inconclusive: 16.4 µM [activator, single point].
With `CCCCCCC(C)(C)c1ccc([C@@H]2C[C@H](O)CC[C@H]2CCCO)c(O)c1` the “activity change, negative = inhibition” value was inactive: -1.3%.
For `Cc1ccc(S(=O)(=O)N2CCC(=O)N(CCOC(=O)Nc3cccc(Cl)c3)CC2)cc1`, the Potency was inconclusive: 18.4 µM [falling, single point].
In the case of `Cc1nc2cc(C(F)(F)F)ccc2n1C1CCN(Cc2nnnn2Cc2ccc3c(c2)OCO3)CC1`, the Potency is reported as inconclusive: 29.1 µM [falling, single point].
In the case of `CCOc1ccc(CCNC(=O)c2ccc(CS(=O)(=O)c3ccccc3C)o2)cc1OCC`, the Potency is reported as inconclusive: 18.4 µM [falling, single point].
For `O=C(CCl)Nc1nccs1`, the Potency was inconclusive: 20.6 µM [falling, single point].
With `c1ccc(-c2[nH]c(-c3ccccc3)[n+](CC3CO3)c2-c2ccccc2)cc1` (stereo unspecified) the Potency was inconclusive: 29.1 µM [falling, single point].
In the case of `CN1CC=C2C(C#N)=C(N)C(C#N)(C#N)C(c3ccncc3)C2C1` (stereo unspecified), the “activity change, negative = inhibition” value is reported as inactive: 2.17%.
For `COc1ccc(O)c(C(=O)c2cnn(-c3ccccn3)c2)c1`, the Potency was inconclusive: 29.1 µM [activator, partial curve, poor fit].
With `CC(C)C[C@H]1C(=O)N2CCC[C@H]2[C@]2(O)O[C@](NC(=O)[C@@H]3C=C4c5cccc6[nH]cc(c56)C[C@H]4N(C)C3)(C(C)C)C(=O)N12` the Potency was inconclusive: 13 µM [falling, partial curve, poor fit].
In the case of `O=C1/C(=C/c2ccc([N+](=O)[O-])cc2)N2CCC1CC2`, the Potency is reported as inconclusive: 0.82 µM [activator, full curve, poor fit].
In the case of `CCOC(=O)c1ccccc1OC(=O)NNc1ccccc1`, the Potency is reported as inconclusive: 2.59 µM [activator, partial curve, poor fit].
For `c1ccc2c(c1)[IH]c1ccccc1-2`, the Potency was active: 0.231 µM.
With `O=C(Nc1ccc(COc2ccccc2)cc1)Oc1ccccc1N1CCOCC1` the Potency was inconclusive: 23.1 µM [activator, partial curve].
With `CCn1cc2nc(SCc3cccc(C(F)(F)F)c3)n(Cc3ccc(OC)cc3)c(=O)c2n1` the Potency was active: 23.1 µM.
With `O=C(Nc1cccnc1)c1c(O)c2c(n(Cc3ccccc3)c1=O)CCCC2` the Potency was inconclusive: 13 µM [falling, partial curve, poor fit].
With `COC(=O)C1=C(c2ccc(F)cc2OCc2ccccc2)C[C@@H]2CC[C@H]1N2C(=O)NCc1ccco1` the “activity change, negative = inhibition” value was inactive: -2.75%.
For `CC(C(=O)c1c[nH]c2ccccc12)N1CCOCC1` (stereo unspecified), the “activity change, negative = inhibition” value was inactive: 3.95%.
For `CC1=C(N2CC2)C(=O)C(CO)=C(N2CC2)C1=O`, the Potency was active: 0.517 µM.
For `COC(=O)C1=C(c2ccc(Cl)c(C(F)(F)F)c2)C[C@@H]2CC[C@H]1N2C(=O)N1CCC(O)(c2ccc(Cl)cc2)CC1`, the Potency was active: 23.1 µM.
With `O=[N+]([O-])c1ccc(Cl)c([N+](=O)[O-])c1` the Potency was inconclusive: 25.9 µM [activator, single point].
In the case of `CC=C(C)C1(CCC)C(=O)NC(=S)NC1=O`, the “activity change, negative = inhibition” value is reported as inactive: 6.21%.
With `C/C(=N\OC(=O)c1ccc(F)cc1)c1sc(-c2ccc(Cl)cc2)nc1C` the Potency was inconclusive: 6.51 µM [activator, full curve, poor fit].
For `O=C(COc1ccc(S(=O)(=O)N2CCCCC2)cc1)N1CCN(Cc2ccccc2)CC1`, the Potency was inconclusive: 23.1 µM [falling, single point].
With `Cc1nn(-c2nccs2)c2c1C(=O)CC(C)(C)C2Br` (stereo unspecified) the Potency was inconclusive: 20.6 µM [falling, partial curve].
In the case of `COC(=O)C1=C(c2cccc(OCc3ccccc3)c2)C[C@@H]2CC[C@H]1N2C(=O)NCc1ccc(Br)cc1`, the Potency is reported as inconclusive: 10.3 µM [falling, partial curve, poor fit].
In the case of `CN(CCc1ccccc1)Cc1c[nH]c2ccccc12`, the “activity change, negative = inhibition” value is reported as inactive: -29%.
In the case of `CCC(=O)Nc1ccc(Cl)c(Cl)c1`, the Potency is reported as inconclusive: 29.1 µM [falling, single point].
In the case of `COc1ccc2c(c1)NP(=S)(c1ccccc1)N2C` (stereo unspecified), the Potency is reported as inconclusive: 29.1 µM [falling, single point].
With `COC(=O)C1=C(c2ccc(OCc3ccccc3)cc2)C[C@@H]2CC[C@H]1N2C(=O)NCCCc1ccccc1` the Potency was active: 14.6 µM.
With `COC(=O)C1=C(c2ccc(-c3ccccc3)c(F)c2)C[C@@H]2CC[C@H]1N2C(=O)NC(C)C` the Potency was inconclusive: 23.1 µM [falling, single point].
With `Cc1cccc(-n2c(O)c(C=NCc3cccnc3)c(=O)[nH]c2=O)c1C` the Potency was inconclusive: 0.411 µM [activator, full curve, poor fit].
For `COCCN1C(=O)NC(=O)/C(=C\c2ccc(F)cc2)C1=O`, the “activity change, negative = inhibition” value was inactive: 13.1%.
In the case of `COC(=O)C1=C(c2ccc(Cl)c(C(F)(F)F)c2)C[C@@H]2CC[C@H]1N2C(=O)NC(C)C`, the “activity change, negative = inhibition” value is reported as inactive: -21.4%.
In the case of `CCOC(=O)C1(c2ccccc2)CCN(CC(=O)Nc2ccc(C)cc2)CC1`, the “activity change, negative = inhibition” value is reported as inactive: -18.3%.
In the case of `C=CCn1c(O)c(C(C)=NCC2CCCO2)c(=O)[nH]c1=O` (stereo unspecified), the “activity change, negative = inhibition” value is reported as inactive: -0.994%.
For `CCCCC(=O)Nc1c(C(=O)N2CCN(c3ccccc3F)CC2)oc2ccccc12`, the Potency was inconclusive: 29.1 µM [falling, single point].
In the case of `CC1=CC2/C=C(\C)CCC(O)C(O)/C=C/C(=O)C23C(=O)NC(CC(C)C)C3C1C` (stereo unspecified), the Potency is reported as active: 14.6 µM.
In the case of `O=c1c2ccccc2cnn1Cc1n[nH]c(=S)n1C1CC2CCC1C2` (stereo unspecified), the Potency is reported as inconclusive: 29.1 µM [falling, single point].
With `Brc1ccc(-[n+]2c(-c3ccccc3)cc(-c3ccccc3)cc2-c2ccccc2)cc1` the Potency was inconclusive: 29.1 µM [falling, single point].
For `COc1ccc(CCNCc2ccc(SC)cc2)cc1`, the Potency was inconclusive: 2.91 µM [activator, single point].
In the case of `O=C(Cn1ccc2ccccc2c1=O)NCC(=O)N1CCC2(CC1)OCCO2`, the Potency is reported as inconclusive: 29.1 µM [activator, single point].
For `[O-]c1ccccc1-[n+]1c(-c2ccccc2)cc(-c2ccccc2)cc1-c1ccccc1`, the Potency was inconclusive: 29.1 µM [falling, single point].
In the case of `CC(C)CCOP(=O)(c1ccc(N(C)C)cc1)C(O)c1ccc(Cl)cc1Cl` (stereo unspecified), the Potency is reported as inconclusive: 29.1 µM [falling, single point].
With `COc1cccc(CN2C(=O)C3(SCC(=O)N3c3ccc(C)c(Cl)c3)c3ccccc32)c1` (stereo unspecified) the Potency was inconclusive: 16.4 µM [falling, partial curve, poor fit].
In the case of `CC(=O)c1ccc2c(c1)C1C(Cl)C(Sc3ccccc3[N+](=O)[O-])CC1C(c1ccccc1)N2` (stereo unspecified), the Potency is reported as inconclusive: 14.6 µM [falling, partial curve, poor fit].
In the case of `Cc1ccc(-n2c(O)c(C=NC3CCCC3)c(=O)[nH]c2=O)c(C)c1`, the “activity change, negative = inhibition” value is reported as inactive: -10.6%.
